# Reference: patent publication US4243679A, “S-(3-Methyl-2-butenyl)cysteine” (priority 1978, dated 1981)
# For at least one compound, name, drawing or mass did not settle the structure.
# Tested on: ciliary epithelium
# Experiment: Effect on the ciliary movement: mucus transport time in isolated dog trachea
# Conditions: 10^-4 g/ml, 20 min
# Text: This vehicle was also used as the blank.
# Mucus transport time, in isolated dog trachea
smiles,measurement,value
COc1cc2c3cc1Oc1cc(ccc1O)C[C@@H]1c4c(cc(OC)c(O)c4Oc4ccc(cc4)C[C@@H]3N(C)CC2)CC[N+]1(C)C [d-turbocurarine],% increase of ciliary transport time,"28.7 ± 19,7%"
